The test system of this assay is P388 leukemia ip, CD2F1 mice, survival T/C. The assay can be described thus: NCI In Vivo Anticancer Drug Screen. Data for tumor model P388 Leukemia (intraperitoneal) in CD2F1 (CDF1) mice. Conditions: T/C endpoint: median survival time, higher T/C = longer survival.
Where [1] appears, read: dose: 120.0 mg/kg/injection, schedule: Q01DX005 (ip), vehicle: saline with Tween-80.
[2] abbreviates: dose: 100.0 mg/kg/injection, schedule: Q01DX009 (ip), vehicle: saline.
The mark [3] stands for this setting: dose: 200.0 mg/kg/injection, schedule: Q01DX009 (ip), vehicle: saline.

The values below come from PubChem BioAssay AID330 (DTP/NCI, 2004).

The list does not hold the whole screen: it gathers tests that were run many times, whatever their T/C, doses with no T/C, and many T/C values between a quarter and a half above the control. Other doses and runs of a compound stand elsewhere. T/C gives the treated animals as a percentage of the vehicle group. Some doses have a count of surviving animals in place of a T/C: the source holds a T/C of zero for them, seemingly a mark for toxic or unscored doses. Some doses without a T/C left all or most animals alive at the check, yet need not have been tolerated: the source hardly ever lists a survival T/C far under the control, and the zero likely stands for such cases as well. Survivors were counted at the toxicity check, usually on the fifth day, unless a day is given; later deaths do not show. Schedules are NCI's codes, taken here to give the interval after Q, in days (D) or hours (H), and the number of doses after X. Some entries were tested several times; their values stand side by side, smallest first. For survival time, this PubChem deposit counts one and a half times the control or more as active, and values a quarter to a half above the control carry no call in these data; other NCI protocols may use other cut-offs. Marks such as (2×) stand for listed records that agree. Some T/C values carry the count of animals alive at the toxicity check (mostly the fifth day); where none is given, no animal had died by that day.

Regarding `COc1ccc(C(C)=O)cc1CSC(=S)N1CCSCC1`, under setting [1], the survivor count is listed as 6 of 6.

Take `Cc1nc2cc3c(=O)n(C)cnc3cc2n1Cc1ccccc1`: the survivor count (dose: 100.0 mg/kg/injection, schedule: Q04DX002 (ip), vehicle: Klucel (hydroxypropylcellulose) (HPC)) was 2 of 6 and 5 of 6; the survivor count (dose: 200.0 mg/kg/injection, schedule: Q04DX002 (ip), vehicle: Klucel (hydroxypropylcellulose) (HPC)) is on record as 5 of 6; the survivor count (dose: 400.0 mg/kg/injection, schedule: Q04DX002 (ip), vehicle: Klucel (hydroxypropylcellulose) (HPC)) is reported as 1 of 6.

Take `S=c1nc2ccccn2c(=S)n1-c1ccccn1`: the survivor count (dose: 200.0 mg/kg/injection, schedule: Q04DX003 (ip), vehicle: saline with Tween-80) is on record as 3 of 6 and the survivor count (dose: 400.0 mg/kg/injection, schedule: Q04DX003 (ip), vehicle: saline with Tween-80) is recorded as 1 of 6.

Regarding `c1ccc2c(c1)O[As](O[As]1Oc3ccccc3O1)O2`, the T/C reads like this: (dose: 5.0 mg/kg/injection, schedule: Q01DX009 (ip), vehicle: saline with Tween-80) 130 % of control; (dose: 10.0 mg/kg/injection, schedule: Q01DX009 (ip), vehicle: saline with Tween-80) 141 and 148 % of control; (dose: 20.0 mg/kg/injection, schedule: Q01DX009 (ip), vehicle: saline with Tween-80) 147 % of control.

With `O=[N+]([O-])/C=C/c1c[nH]c2c1ccc1ccccc12`, under “dose: 50.0 mg/kg/injection, schedule: Q01DX005 (ip), vehicle: saline with Tween-80”, the survivor count is recorded as 6 of 6.

For `CCC(c1ccc(OCCS(=O)(=O)OC)cc1)C(CC)c1ccc(OCCS(=O)(=O)OC)cc1` (stereo unspecified), the survivor count is reported as 6 of 6 under setting [2]; 5 of 6 (dose: 100.0 mg/kg/injection, schedule: Q01DX009 (ip), vehicle: suspension in saline); 6 of 6 (dose: 200.0 mg/kg/injection, schedule: Q01DX009 (ip), vehicle: suspension in saline).

On to `CN(C)C(=S)n1c(=S)nc(N(C)C)sc1=S`, for which the survivor count (dose: 200.0 mg/kg/injection, schedule: Q01DX005 (ip), vehicle: saline with Tween-80) is 0 of 6.

In the case of `C[n+]1cccc(C(=O)OCC(C)(C)N(Cl)Cl)c1`, the survivor count is given as 5 of 6 under setting [2] and 0 of 6 under setting [3].

As for `O=C(O)Cc1cccc2c(=O)cc(-c3ccccc3)oc12`, the T/C was 103 and 119 % of control (dose: 30.0 mg/kg/injection, schedule: Q01DX009 (ip), vehicle: sodium bicarbonate, evaluated on day 30); 111, 126, 128 % of control (2×) (dose: 30.0 mg/kg/injection, schedule: Q01DX009 (ip), vehicle: sodium bicarbonate, evaluated on day 45); 121 % of control (dose: 30.0 mg/kg/injection, schedule: Q01DX009 (ip), vehicle: sodium bicarbonate, evaluated on day 60); 150 % of control (dose: 44.0 mg/kg/injection, schedule: Q01DX009 (ip), vehicle: sodium bicarbonate, evaluated on day 30); 122, 130, 137, 140, 141, 146, 147, 156 % of control (dose: 44.0 mg/kg/injection, schedule: Q01DX009 (ip), vehicle: sodium bicarbonate, evaluated on day 45); 120, 123, 134, 137 % of control (dose: 44.0 mg/kg/injection, schedule: Q01DX009 (ip), vehicle: sodium bicarbonate, evaluated on day 60). Besides, the T/C (dose: 67.0 mg/kg/injection, schedule: Q01DX005 (ip), vehicle: saline) was 137 % of control; the T/C (dose: 67.0 mg/kg/injection, schedule: Q01DX009 (ip), vehicle: saline, evaluated on day 30) is 119 % of control; the T/C (dose: 67.0 mg/kg/injection, schedule: Q01DX009 (ip), vehicle: saline, evaluated on day 44) is 217 % of control; the T/C (dose: 67.0 mg/kg/injection, schedule: Q01DX009 (ip), vehicle: saline, evaluated on day 45) is 153 % of control; the T/C (dose: 67.0 mg/kg/injection, schedule: Q01DX009 (ip), vehicle: saline, evaluated on day 60) was 147 % of control; the T/C (dose: 67.0 mg/kg/injection, schedule: Q01DX009 (ip), vehicle: sodium bicarbonate, evaluated on day 30) was 129 and 180 % of control. The T/C reads like this: (dose: 67.0 mg/kg/injection, schedule: Q01DX009 (ip), vehicle: sodium bicarbonate, evaluated on day 45) 153, 160, 161, 165, 169, 171, 176, 182, 195 % of control; (dose: 67.0 mg/kg/injection, schedule: Q01DX009 (ip), vehicle: sodium bicarbonate, evaluated on day 60) 150, 174, 179, 180 % of control; (dose: 100.0 mg/kg/injection, schedule: Q01DX009 (ip), vehicle: saline, evaluated on day 20) 118 % of control; (dose: 100.0 mg/kg/injection, schedule: Q01DX009 (ip), vehicle: saline, evaluated on day 30) 112 % of control; (dose: 100.0 mg/kg/injection, schedule: Q01DX009 (ip), vehicle: saline, evaluated on day 44) 95 % of control; (dose: 100.0 mg/kg/injection, schedule: Q01DX009 (ip), vehicle: saline, evaluated on day 45) 171 % of control. Also, the T/C reads like this: (dose: 100.0 mg/kg/injection, schedule: Q01DX009 (ip), vehicle: saline, evaluated on day 60) 174 % of control; (dose: 100.0 mg/kg/injection, schedule: Q01DX009 (ip), vehicle: sodium bicarbonate, evaluated on day 30) 142 and 173 % of control; (dose: 100.0 mg/kg/injection, schedule: Q01DX009 (ip), vehicle: sodium bicarbonate, evaluated on day 45) 167, 170, 174 (2×), 187, 190, 198, 215, 218 % of control; (dose: 100.0 mg/kg/injection, schedule: Q01DX009 (ip), vehicle: sodium bicarbonate, evaluated on day 60) 176, 177, 193, 199 % of control; (dose: 134.0 mg/kg/injection, schedule: Q04DX002 (ip), vehicle: sodium bicarbonate) 127 % of control; (dose: 150.0 mg/kg/injection, schedule: Q01DX009 (ip), vehicle: saline, evaluated on day 30) 98 % of control [9 of 10 alive]. The T/C (dose: 150.0 mg/kg/injection, schedule: Q01DX009 (ip), vehicle: saline, evaluated on day 45) is 102 % of control [9 of 10 alive]; the T/C (dose: 150.0 mg/kg/injection, schedule: Q01DX009 (ip), vehicle: saline, evaluated on day 60) is 98 % of control [8 of 10 alive]; the T/C (dose: 150.0 mg/kg/injection, schedule: Q01DX009 (ip), vehicle: sodium bicarbonate, evaluated on day 30) was 103 and 149 % of control; the T/C (dose: 150.0 mg/kg/injection, schedule: Q01DX009 (ip), vehicle: sodium bicarbonate, evaluated on day 45) is 182 [9 of 10 alive], 186 (3×), 195, 196, 208, 215, 228 % of control; the T/C (dose: 150.0 mg/kg/injection, schedule: Q01DX009 (ip), vehicle: sodium bicarbonate, evaluated on day 60) is on record as 195, 202, 205, 210 % of control; the T/C (dose: 175.0 mg/kg/injection, schedule: Q01DX009 (ip), vehicle: sodium bicarbonate, evaluated on day 45) is reported as 99, 100, 118, 185, 205 % of control. Besides, the T/C runs as follows: (dose: 175.0 mg/kg/injection, schedule: Q01DX009 (ip), vehicle: sodium bicarbonate, evaluated on day 60) 161 % of control; (dose: 200.0 mg/kg/injection, schedule: Q04DX002 (ip), vehicle: sodium bicarbonate) 134 % of control. For the same compound, the survivor count by setting is: (dose: 150.0 mg/kg/injection, schedule: Q01DX009 (ip), vehicle: saline) 6 of 6; under setting [3], 2 of 6 and 3 of 6.

In the case of `COc1cccc(-c2nsc(=O)o2)c1`, under “dose: 400.0 mg/kg/injection, schedule: Q01DX009 (ip), vehicle: Klucel (hydroxypropylcellulose) (HPC)”, the survivor count was 3 of 6.

For the compound `CC(=O)c1cc2cc3c4c(c2oc1=O)CCCN4CCC3`, under “dose: 240.0 mg/kg/injection, schedule: Q01DX005 (ip), vehicle: Klucel (hydroxypropylcellulose) (HPC)”, the survivor count is 3 of 6.

With `O=C(NC(=S)Nc1ccc(CCO)cc1)c1cccc(Br)c1`, the survivor count is listed as 6 of 6 (dose: 15.0 mg/kg/injection, schedule: Q01DX005 (ip), vehicle: saline with Tween-80); 6 of 6 (dose: 30.0 mg/kg/injection, schedule: Q01DX005 (ip), vehicle: saline with Tween-80); 6 of 6 (dose: 60.0 mg/kg/injection, schedule: Q01DX005 (ip), vehicle: saline with Tween-80); 6 of 6 under setting [1].
